These results are taken from US9012611B2, “Use of 3,8,12,14, 17,20-oxo-substituted pregnene glycosides in the preparation of healthcare products, food additives and pharmaceuticals for the inhibition of appetite” (Institute of Materia Medica, Chinese Academy of Sciences, priority 2010, dated 2015).

Where a name gives a salt, the structure may show the parent alone.

The series concerns female Wistar rat. In words: Animal test in vivo: average water consumption. The note with it: for Average water consumptions: positive control 15 mg/kg; for water consumption doses compared with the blank control group (in words): during the administration of the drugs, pure glycosides 50 mg/kg.
Where [1] appears, read: 1st day (administration day), Table 2, crude extract 300 mg/kg, others 50 mg/kg.
Where [2] appears, read: 2nd day (administration day), Table 2, crude extract 300 mg/kg, others 50 mg/kg.
Where [3] appears, read: 3rd day (administration day), Table 2, crude extract 300 mg/kg, others 50 mg/kg.
Setting [4] is: 4th day (after administration on days 1-3), Table 2, crude extract 300 mg/kg, others 50 mg/kg.
The mark [5] stands for this setting: 5th day (after administration on days 1-3), Table 2, crude extract 300 mg/kg, others 50 mg/kg.
Setting [6] is: 6th day (after administration on days 1-3), Table 2, crude extract 300 mg/kg, others 50 mg/kg.
Setting [7] is: 7th day (after administration on days 1-3), Table 2, crude extract 300 mg/kg, others 50 mg/kg.
The mark [8] stands for this setting: −1st day (before administration), Table 2, crude extract 300 mg/kg, others 50 mg/kg.
Setting [9] is: −2nd day (before administration), Table 2, crude extract 300 mg/kg, others 50 mg/kg.
Setting [10] is: −3rd day (before administration), Table 2, crude extract 300 mg/kg, others 50 mg/kg.
[11] abbreviates: −4th day (before administration), Table 2, crude extract 300 mg/kg, others 50 mg/kg.
Setting [12] is: −5th day (before administration), Table 2, crude extract 300 mg/kg, others 50 mg/kg.
[13] abbreviates: −6th day (before administration), Table 2, crude extract 300 mg/kg, others 50 mg/kg.
Setting [14] is: −7th day (before administration), Table 2, crude extract 300 mg/kg, others 50 mg/kg.
The mark [15] stands for this setting: 1st day (administration day), Table 5, wilfosides 50 mg/kg.
[16] abbreviates: 2nd day (administration day), Table 5, wilfosides 50 mg/kg.
Where [17] appears, read: 3rd day (administration day), Table 5, wilfosides 50 mg/kg.
Setting [18] is: 4th day (after administration on days 1-3), Table 5, wilfosides 50 mg/kg.
Setting [19] is: 5th day (after administration on days 1-3), Table 5, wilfosides 50 mg/kg.
The mark [20] stands for this setting: 6th day (after administration on days 1-3), Table 5, wilfosides 50 mg/kg.
[21] abbreviates: 7th day (after administration on days 1-3), Table 5, wilfosides 50 mg/kg.
Setting [22] is: −1st day (before administration), Table 5, wilfosides 50 mg/kg.
Setting [23] is: −2nd day (before administration), Table 5, wilfosides 50 mg/kg.
[24] abbreviates: −3rd day (before administration), Table 5, wilfosides 50 mg/kg.
[25] abbreviates: −4th day (before administration), Table 5, wilfosides 50 mg/kg.
[26] abbreviates: −5th day (before administration), Table 5, wilfosides 50 mg/kg.
Where [27] appears, read: −6th day (before administration), Table 5, wilfosides 50 mg/kg.
Setting [28] is: −7th day (before administration), Table 5, wilfosides 50 mg/kg.

Turning to `CO[C@H]1C[C@H](O[C@H]2[C@@H](OC)C[C@H](O[C@H]3CC[C@@]4(C)C(=CC[C@]5(O)[C@@H]4C[C@@H](OC(=O)/C=C/c4ccccc4)[C@@]4(C)[C@]5(O)CC[C@@]4(O)C(C)=O)C3)O[C@@H]2C)O[C@@H](C)[C@H]1O[C@H]1C[C@H](OC)[C@H](O[C@H]2C[C@@H](OC)[C@@H](O[C@@H]3O[C@H](CO)[C@@H](O)[C@H](O)[C@H]3O)[C@H](C)O2)[C@@H](C)O1` [Cynauricuoside A, cynauricuoside A], the Average water consumptions runs as follows: under setting [1], 13 mL; under setting [2], 16 mL; under setting [3], 18.6 mL; under setting [4], 19 mL; under setting [5], 20 mL; under setting [6], 22.4 mL. In addition, the Average water consumptions stood at 23 mL under setting [7]; 21 mL under setting [8]; 17.6 mL under setting [9]; 22 mL under setting [10]; 15.6 mL under setting [11]; 19 mL under setting [12]. The Average water consumptions runs as follows: under setting [13], 22 mL; under setting [14], 19 mL. For the same compound, for the setting “crude extract 300 mg/kg”, the “water consumption doses compared with the blank control group (in words)” value is listed as “no much differences”.

Take `CC(C)CC(N(C)C)C1(c2ccc(Cl)cc2)CCC1` (stereo not shown) [Positive control, sibutramine hydrochloride, reference compound]: the Average water consumptions was found to be 13.8 mL under setting [1]; 14 mL under setting [15]; 17 mL under setting [2]; 19.8 mL under setting [16]; 22 mL under setting [3]; 16.4 mL under setting [17]. The Average water consumptions was 23.8 mL under setting [4]; 19.8 mL under setting [18]; 21 mL under setting [5]; 17.2 mL under setting [19]; 23 mL under setting [6]; 18.6 mL under setting [20]. In addition, the Average water consumptions is 25 mL under setting [7]; 13.8 mL under setting [21]; 23 mL under setting [8]; 23.6 mL under setting [22]; 18.2 mL under setting [9]; 18.2 mL under setting [23]. Besides, the Average water consumptions came to 22 mL under setting [10]; 19.8 mL under setting [24]; 24 mL under setting [11]; 18.8 mL under setting [25]; 22 mL under setting [12]; 18.8 mL under setting [26]. In addition, the Average water consumptions reads like this: under setting [13], 21.8 mL; under setting [27], 15.6 mL; under setting [14], 33 mL; under setting [28], 13 mL.

For the compound `CO[C@H]1C[C@H](O[C@H]2[C@@H](OC)C[C@H](O[C@H]3CC[C@@]4(C)C(=CC[C@]5(O)[C@@H]4C[C@@H](OC(=O)/C=C(\C)C(C)C)[C@@]4(C)[C@]5(O)CC[C@@]4(O)C(C)=O)C3)O[C@@H]2C)O[C@@H](C)[C@H]1O[C@H]1C[C@H](OC)[C@H](O[C@H]2C[C@@H](OC)[C@@H](O[C@@H]3O[C@H](CO)[C@@H](O)[C@H](O)[C@H]3O)[C@H](C)O2)[C@@H](C)O1` [Wilfoside C1G, wilfoside C1G], the Average water consumptions by setting is: under setting [1], 23 mL; under setting [2], 21.4 mL; under setting [3], 20 mL; under setting [4], 21 mL; under setting [5], 23 mL; under setting [6], 20.6 mL. The Average water consumptions was 24 mL under setting [7]; 24 mL under setting [8]; 19 mL under setting [9]; 22 mL under setting [10]; 22 mL under setting [11]; 18.6 mL under setting [12]. The Average water consumptions came out at 21 mL under setting [13] and 18 mL under setting [14]. The “water consumption doses compared with the blank control group (in words)” value (crude extract 300 mg/kg) is reported as “no great differences”.

With `CO[C@H]1C[C@H](O[C@H]2[C@@H](OC)C[C@H](O[C@H]3CC[C@@]4(C)C(=CC[C@]5(O)[C@@H]4C[C@@H](OC(=O)/C=C(\C)C(C)C)[C@@]4(C)[C@]5(O)CC[C@@]4(O)C(C)=O)C3)O[C@@H]2C)O[C@@H](C)[C@H]1O[C@H]1C[C@H](OC)[C@H](O[C@H]2C[C@@H](OC)[C@@H](O)[C@H](C)O2)[C@@H](C)O1` [Wilfoside C1N, wilfoside C1N], the Average water consumptions under setting [15] is recorded as 19 mL; the Average water consumptions under setting [16] worked out at 20.4 mL; the Average water consumptions under setting [17] came out at 13.2 mL; the Average water consumptions under setting [18] is 22 mL; the Average water consumptions under setting [19] was determined as 22 mL; the Average water consumptions under setting [20] came out at 21.6 mL. In addition, the Average water consumptions runs as follows: under setting [21], 18.8 mL; under setting [22], 21.8 mL; under setting [23], 19.6 mL; under setting [24], 19 mL; under setting [25], 20 mL; under setting [26], 18 mL. For the same compound, the Average water consumptions is, setting by setting: under setting [27], 16.2 mL; under setting [28], 16.2 mL. Where the note is “crude extract 300 mg/kg”, the “water consumption doses compared with the blank control group (in words)” value was “no much differences”.

For the compound `CO[C@H]1C[C@H](O[C@H]2[C@@H](OC)C[C@H](O[C@H]3CC[C@@]4(C)C(=CC[C@]5(O)[C@@H]4C[C@@H](OC(=O)/C=C/c4ccccc4)[C@@]4(C)[C@]5(O)CC[C@@]4(O)C(C)=O)C3)O[C@@H]2C)O[C@@H](C)[C@H]1O[C@H]1C[C@H](OC)[C@H](O[C@H]2C[C@@H](OC)[C@@H](O)[C@H](C)O2)[C@@H](C)O1` [Wilfoside K1N, wilfoside K1N], the Average water consumptions by setting is: under setting [15], 12.6 mL; under setting [16], 19.8 mL; under setting [17], 14.4 mL; under setting [18], 18 mL; under setting [19], 20.4 mL; under setting [20], 19.2 mL. Further, the Average water consumptions runs as follows: under setting [21], 21.6 mL; under setting [22], 21.8 mL; under setting [23], 16.2 mL; under setting [24], 17.8 mL; under setting [25], 18.8 mL; under setting [26], 18.2 mL. The Average water consumptions is given as 16.6 mL under setting [27] and 12.7 mL under setting [28]. The “water consumption doses compared with the blank control group (in words)” value (crude extract 300 mg/kg) is listed as “greatly different from those in the blank group”.
